At least one peptide structure holds a part that was inferred or is arguable (an end, a ring closure or a residue). Ends that are not written are not given here.
System: HUVEC cells
Assay: CyQUANT proliferation assay of bFGF-stimulated HUVEC
Type: cell-based, human
Settings: 10 ng/ml bFGF, serum-free M199, 48 hours, read-out: IC50 (inhibition of endothelial cell proliferation)
Protocol: Cell proliferation was determined by using CyQUANT cell proliferation assay kit from Molecular Probes (catalog #C-7026).
HUVEC cells (50,000/well) in a 96 well microtiter plate were stimulated with 10 ng/ml bFGF in serum-free, M199 growth medium with or without HK peptide for 48 hours at 37° C. in a CO2 incubator. Cells were washed with serum-free medium and frozen at -40° C. Frozen cells were thawed and lysed with a lysis buffer containing the CyQUANT GR dye. Fluorescence was measured using a Cytofluor II Fluorescence Multi-well plate reader with excitation 485 nm and emission with 530 nm.
The percent inhibition of proliferation at a specific peptide concentration was determined for some peptides. For other peptides, an IC50 was calculated from a curve plotting inhibitor concentration versus percent inhibition over a inhibition range of ten to ninety percent inhibition.

Row | Sequence | IC50 [nM]
1 | GHGLGHGHEQQHGLGH [SEQ ID NO: 9, GHGLGHGHEQQHGLGH] | 102
2 | HGHKHKHGHGH [SEQ ID NO: 11, HGHKHKHG HGH] | 892

Reference: patent US6284726A, “Inhibition of angiogenesis by peptide analogs of high molecular weight kininogen domain 5” (Temple University - Of The Commonwealth System of Higher …, priority 2000, dated 2001)
